No constants are given. Whether binding was seen depends on the method and setting.
What was measured:
Cdc13-L91R [1] = molecular target: T1, Cdc13-L91R (Saccharomyces cerevisiae, UniProt P32797 1-924, L91R); test: mass photometry; 1x DNA-binding buffer with 50 nM Tel30G ssDNA, 11.25 nM protein, room temperature; both purified
T1 sequence: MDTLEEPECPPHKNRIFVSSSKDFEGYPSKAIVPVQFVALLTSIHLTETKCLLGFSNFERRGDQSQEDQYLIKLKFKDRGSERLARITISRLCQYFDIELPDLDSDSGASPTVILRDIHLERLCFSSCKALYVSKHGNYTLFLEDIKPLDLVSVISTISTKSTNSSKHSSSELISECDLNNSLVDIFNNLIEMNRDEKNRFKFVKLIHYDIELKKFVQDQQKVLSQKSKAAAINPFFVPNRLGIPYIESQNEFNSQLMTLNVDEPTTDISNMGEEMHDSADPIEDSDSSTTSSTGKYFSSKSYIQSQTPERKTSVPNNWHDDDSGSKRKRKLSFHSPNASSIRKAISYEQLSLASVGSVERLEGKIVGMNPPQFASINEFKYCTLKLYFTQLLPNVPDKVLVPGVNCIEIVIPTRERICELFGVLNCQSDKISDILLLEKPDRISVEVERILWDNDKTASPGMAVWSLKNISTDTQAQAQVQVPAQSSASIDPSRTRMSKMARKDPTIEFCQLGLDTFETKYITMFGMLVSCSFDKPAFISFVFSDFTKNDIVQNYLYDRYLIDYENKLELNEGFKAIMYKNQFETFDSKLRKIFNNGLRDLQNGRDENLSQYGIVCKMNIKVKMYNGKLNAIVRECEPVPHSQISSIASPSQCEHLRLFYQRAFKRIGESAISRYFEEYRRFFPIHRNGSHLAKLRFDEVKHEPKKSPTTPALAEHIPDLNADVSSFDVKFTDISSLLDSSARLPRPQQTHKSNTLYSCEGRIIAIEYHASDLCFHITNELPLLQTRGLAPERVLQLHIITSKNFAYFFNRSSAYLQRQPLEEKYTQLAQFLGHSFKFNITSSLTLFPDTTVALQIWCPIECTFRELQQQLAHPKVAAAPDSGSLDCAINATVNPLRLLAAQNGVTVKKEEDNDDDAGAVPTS

Cdc13-L91R [2] = molecular target: T1, Cdc13-L91R; test: mass photometry; protein alone in 1x DNA-binding buffer (25 mM HEPES pH 8.0, 50 mM NaOAc, 150 mM NaCl, 7.5 mM MgCl2), 11.25 nM protein, room temperature; both purified
Cdc13-L91R [3] = molecular target: T1, Cdc13-L91R; test: mass photometry; 1x DNA-binding buffer with 50 nM Tel50G ssDNA, 11.25 nM protein, room temperature; both purified

Measured: binding

B1: Cdc13-L91R (protein, UniProt P32797 1-924)
chain: T1 sequence
no binding (tested: 11.25 nM): all assays above
